Measurements from publication doi:10.1101/2024.09.03.610971.

Amino acid sequences for entries named in this document (tags omitted). A change or cut given only in a name is not applied to a line headed by its entry.
UniProt Q8C0R0: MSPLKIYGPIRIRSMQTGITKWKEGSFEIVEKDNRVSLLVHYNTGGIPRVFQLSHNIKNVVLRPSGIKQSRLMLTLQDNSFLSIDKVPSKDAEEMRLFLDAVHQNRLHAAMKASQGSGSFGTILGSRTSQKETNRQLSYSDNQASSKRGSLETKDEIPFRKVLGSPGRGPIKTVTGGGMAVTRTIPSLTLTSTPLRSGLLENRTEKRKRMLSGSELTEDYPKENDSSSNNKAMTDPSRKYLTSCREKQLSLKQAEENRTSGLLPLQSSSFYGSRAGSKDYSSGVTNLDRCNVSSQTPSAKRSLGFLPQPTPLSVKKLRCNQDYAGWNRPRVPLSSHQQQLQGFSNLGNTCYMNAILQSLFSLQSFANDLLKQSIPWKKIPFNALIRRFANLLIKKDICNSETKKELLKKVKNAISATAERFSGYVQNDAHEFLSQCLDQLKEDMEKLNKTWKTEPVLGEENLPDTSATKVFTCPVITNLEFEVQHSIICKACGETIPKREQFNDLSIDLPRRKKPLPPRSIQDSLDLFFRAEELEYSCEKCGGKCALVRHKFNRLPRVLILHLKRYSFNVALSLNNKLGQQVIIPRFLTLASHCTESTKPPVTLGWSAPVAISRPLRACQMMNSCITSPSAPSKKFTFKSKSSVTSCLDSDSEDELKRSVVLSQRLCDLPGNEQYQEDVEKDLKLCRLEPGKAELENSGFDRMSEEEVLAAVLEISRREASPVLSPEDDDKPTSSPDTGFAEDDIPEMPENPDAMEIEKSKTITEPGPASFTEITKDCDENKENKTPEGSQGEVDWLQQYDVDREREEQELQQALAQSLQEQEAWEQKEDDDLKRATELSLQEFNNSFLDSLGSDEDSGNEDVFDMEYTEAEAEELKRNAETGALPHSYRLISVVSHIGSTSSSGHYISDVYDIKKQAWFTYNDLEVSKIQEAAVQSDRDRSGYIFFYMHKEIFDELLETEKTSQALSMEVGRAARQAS

Target: T1, mouse CDC45, yeast two-hybrid fusion (mouse) (UniProt Q9Z1X9)
T1 sequence: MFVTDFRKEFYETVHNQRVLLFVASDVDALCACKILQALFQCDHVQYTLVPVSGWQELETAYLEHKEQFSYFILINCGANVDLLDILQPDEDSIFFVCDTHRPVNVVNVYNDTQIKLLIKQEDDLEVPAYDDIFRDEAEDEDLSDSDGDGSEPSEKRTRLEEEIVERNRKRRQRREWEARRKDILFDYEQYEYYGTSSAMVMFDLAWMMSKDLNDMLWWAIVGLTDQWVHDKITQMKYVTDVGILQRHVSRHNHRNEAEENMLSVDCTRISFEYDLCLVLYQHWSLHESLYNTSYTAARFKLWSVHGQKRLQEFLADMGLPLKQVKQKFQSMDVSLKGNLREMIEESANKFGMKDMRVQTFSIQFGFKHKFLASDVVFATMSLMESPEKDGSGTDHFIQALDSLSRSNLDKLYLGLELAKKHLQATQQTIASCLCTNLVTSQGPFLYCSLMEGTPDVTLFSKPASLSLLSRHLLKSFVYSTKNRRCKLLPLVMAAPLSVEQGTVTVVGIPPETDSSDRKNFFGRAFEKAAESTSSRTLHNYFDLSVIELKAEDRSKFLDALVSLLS
Test: two-hybrid

USP37 1-119 with the 10A mutations, yeast two-hybrid fusion (from UniProt Q8C0R0) (domain or fragment)
binding: no binding

Results are given in words; binding and its absence hold for the method and conditions named. Where a sequence is shown, tags or fusion partners need not be part of it.
